These are yes or no findings as the source states them, for the method shown. Binding seen in cells or lysates may run through a third protein. Some results given as binding are weak or reduced against the parent protein; the word gives no strength.
Molecular target: Myc-tagged human CDK12 (6Myc-tagged CDK12 WT in pcDNA3) (human) (UniProt Q9NYV4)
Assay: co-IP; Myc-CDK12 immunoprecipitated from transfected HEK293 cells, immunoblot for cyclin K; cells serum-starved overnight, then stimulated with PMA, EGF, insulin or FBS, or treated with BVD-523 or PD184352 before PMA

Amino acid sequences for entries named in this document (tags omitted).
UniProt Q9NYV4: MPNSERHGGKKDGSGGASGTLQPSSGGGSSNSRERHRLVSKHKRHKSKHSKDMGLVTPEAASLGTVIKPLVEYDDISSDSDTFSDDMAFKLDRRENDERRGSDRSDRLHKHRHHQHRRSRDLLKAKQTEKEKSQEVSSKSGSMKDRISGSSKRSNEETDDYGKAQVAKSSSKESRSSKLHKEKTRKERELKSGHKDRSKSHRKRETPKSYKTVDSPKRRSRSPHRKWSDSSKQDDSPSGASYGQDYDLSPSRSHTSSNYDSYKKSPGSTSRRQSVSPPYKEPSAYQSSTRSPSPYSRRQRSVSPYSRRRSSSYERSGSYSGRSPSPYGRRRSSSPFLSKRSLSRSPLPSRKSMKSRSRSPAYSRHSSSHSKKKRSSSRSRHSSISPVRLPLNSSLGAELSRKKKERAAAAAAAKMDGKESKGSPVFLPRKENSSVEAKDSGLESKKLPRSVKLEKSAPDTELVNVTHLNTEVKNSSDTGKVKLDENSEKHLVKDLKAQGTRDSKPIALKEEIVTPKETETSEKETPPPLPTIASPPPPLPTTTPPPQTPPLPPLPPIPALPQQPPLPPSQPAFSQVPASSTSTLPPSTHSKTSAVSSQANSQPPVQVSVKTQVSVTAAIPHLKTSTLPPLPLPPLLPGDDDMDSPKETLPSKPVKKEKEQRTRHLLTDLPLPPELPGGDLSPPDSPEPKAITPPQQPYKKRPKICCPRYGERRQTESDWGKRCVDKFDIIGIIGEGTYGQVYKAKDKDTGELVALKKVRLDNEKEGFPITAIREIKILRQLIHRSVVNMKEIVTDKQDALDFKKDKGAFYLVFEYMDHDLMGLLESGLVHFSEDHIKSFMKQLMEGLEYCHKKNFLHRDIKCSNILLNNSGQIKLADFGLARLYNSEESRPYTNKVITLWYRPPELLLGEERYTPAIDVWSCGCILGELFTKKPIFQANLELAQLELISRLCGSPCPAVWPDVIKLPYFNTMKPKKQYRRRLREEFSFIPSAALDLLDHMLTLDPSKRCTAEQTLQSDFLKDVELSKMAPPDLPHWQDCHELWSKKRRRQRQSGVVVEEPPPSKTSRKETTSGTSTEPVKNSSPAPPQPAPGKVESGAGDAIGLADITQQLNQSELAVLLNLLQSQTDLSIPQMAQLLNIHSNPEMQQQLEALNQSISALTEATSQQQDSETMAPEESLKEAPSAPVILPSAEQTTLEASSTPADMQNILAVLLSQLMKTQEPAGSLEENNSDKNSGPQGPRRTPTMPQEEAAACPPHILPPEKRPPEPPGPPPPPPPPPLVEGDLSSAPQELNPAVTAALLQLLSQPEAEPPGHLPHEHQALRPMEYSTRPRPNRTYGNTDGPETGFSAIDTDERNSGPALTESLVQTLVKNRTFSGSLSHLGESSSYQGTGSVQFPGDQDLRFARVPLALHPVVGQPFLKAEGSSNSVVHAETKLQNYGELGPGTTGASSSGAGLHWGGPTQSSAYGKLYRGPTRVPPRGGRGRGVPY
UniProt O75909: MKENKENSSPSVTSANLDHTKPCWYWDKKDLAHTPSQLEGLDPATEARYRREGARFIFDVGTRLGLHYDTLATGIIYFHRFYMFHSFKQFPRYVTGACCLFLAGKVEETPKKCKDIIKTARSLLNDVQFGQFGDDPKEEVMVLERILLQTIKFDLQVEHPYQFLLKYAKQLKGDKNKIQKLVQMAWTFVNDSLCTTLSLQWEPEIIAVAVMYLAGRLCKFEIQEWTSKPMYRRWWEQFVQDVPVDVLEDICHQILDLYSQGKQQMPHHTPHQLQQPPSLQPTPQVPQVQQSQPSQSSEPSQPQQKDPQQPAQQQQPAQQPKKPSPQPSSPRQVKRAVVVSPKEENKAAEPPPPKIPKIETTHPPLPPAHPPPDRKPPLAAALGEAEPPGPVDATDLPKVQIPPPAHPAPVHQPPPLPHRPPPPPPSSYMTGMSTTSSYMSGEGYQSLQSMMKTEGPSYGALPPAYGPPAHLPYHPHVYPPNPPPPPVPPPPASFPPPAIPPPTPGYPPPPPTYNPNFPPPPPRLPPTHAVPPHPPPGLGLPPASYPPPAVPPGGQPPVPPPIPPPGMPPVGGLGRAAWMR

Substance: Cyclin K (from UniProt O75909 1-580)
- binding: binds
